The results in this text go back to PubChem BioAssay AID393 (SGCOxCompounds, 2006).

The chains behind the UniProt entries cited, without tags or fusion partners.
UniProt P11309, whole entry, looked up: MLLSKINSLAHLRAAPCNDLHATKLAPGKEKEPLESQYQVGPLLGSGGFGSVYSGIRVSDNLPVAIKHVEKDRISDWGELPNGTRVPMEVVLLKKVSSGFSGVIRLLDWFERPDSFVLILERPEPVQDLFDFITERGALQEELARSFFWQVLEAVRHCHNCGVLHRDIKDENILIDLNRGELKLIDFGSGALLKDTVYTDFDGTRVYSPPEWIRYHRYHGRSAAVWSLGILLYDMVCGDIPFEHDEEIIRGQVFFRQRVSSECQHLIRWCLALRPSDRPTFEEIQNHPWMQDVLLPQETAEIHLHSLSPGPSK

What follows is the remainder of the data, with few or none of the hits. Active and inactive are the calls of the source. The rule behind the calls is not given here.

The assay concerns the target Serine/threonine-protein kinase pim-1 (Homo sapiens) (UniProt P11309). Put plainly: compound-induced PIM1 thermal stabilization – biophysical, human, melting temperature shift (AID 393). The conditions noted are these: Thermal shift assay, at 10 µM, protein 2 µM, buffer 10 mM PIPES, pH 6.5, NaCl 150 mM, active compounds read high.

For `CCC(CO)Nc1ccc2ncc(-c3cccc(Cl)c3)n2n1` (configuration not stated), the Tm shift was active: 7.52 Celsius.
Under `CCC(CO)Nc1ccc2ncc(-c3cccc(NC(C)=O)c3)n2n1` (configuration not stated) stands active: 5.07 Celsius.
